These are yes or no findings as the source states them, for the method shown. Binding can be weak; no strength is given. Where a sequence is shown, tags or fusion partners need not be part of it.

The target of this assay is T1, recombinant human FGFR4 Fc Chimera (human, UniProt P22455 22-369).
T1 construct: Fibroblast Growth Factor receptor 4 (FGFR4), human, extracellular domain; also called FGFR4^ECD; extracellular domain (ECD) of FGFR4; source: bought: R&D systems 685-FR and BioLegend 752502
T1 sequence (looked up): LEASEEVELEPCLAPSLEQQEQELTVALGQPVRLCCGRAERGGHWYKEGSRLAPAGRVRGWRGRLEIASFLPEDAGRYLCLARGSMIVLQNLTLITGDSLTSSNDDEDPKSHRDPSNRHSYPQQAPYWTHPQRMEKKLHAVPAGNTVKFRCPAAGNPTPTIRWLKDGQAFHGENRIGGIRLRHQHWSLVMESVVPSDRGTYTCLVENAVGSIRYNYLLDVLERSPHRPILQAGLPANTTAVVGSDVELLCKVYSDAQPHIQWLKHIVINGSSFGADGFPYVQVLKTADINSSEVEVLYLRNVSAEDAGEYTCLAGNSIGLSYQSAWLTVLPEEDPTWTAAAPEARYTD
In words: in vitro binding assay (solid phase, bound AP activity); 96-well plates coated with 2-4 ug ml^-1 Fc Chimera in bicarbonate coating buffer pH 9.6; 2 U ml^-1 RSPOs-AP overnight at 4 °C; AquaSpark AP substrate; only the target purified.

“human RSPO2 deletion mutant(s) lacking the FU1/2 domains, AP fusion (domain or fragment)”: the binding result was “binds”.
